Measurements: article PMC10264414
These are yes or no findings as the source states them, for the method shown. In cells and extracts the contact can be indirect. Some results given as binding are weak or reduced against the parent protein; the word gives no strength.

The chains behind the UniProt entries cited, without tags or fusion partners.
UniProt P35222: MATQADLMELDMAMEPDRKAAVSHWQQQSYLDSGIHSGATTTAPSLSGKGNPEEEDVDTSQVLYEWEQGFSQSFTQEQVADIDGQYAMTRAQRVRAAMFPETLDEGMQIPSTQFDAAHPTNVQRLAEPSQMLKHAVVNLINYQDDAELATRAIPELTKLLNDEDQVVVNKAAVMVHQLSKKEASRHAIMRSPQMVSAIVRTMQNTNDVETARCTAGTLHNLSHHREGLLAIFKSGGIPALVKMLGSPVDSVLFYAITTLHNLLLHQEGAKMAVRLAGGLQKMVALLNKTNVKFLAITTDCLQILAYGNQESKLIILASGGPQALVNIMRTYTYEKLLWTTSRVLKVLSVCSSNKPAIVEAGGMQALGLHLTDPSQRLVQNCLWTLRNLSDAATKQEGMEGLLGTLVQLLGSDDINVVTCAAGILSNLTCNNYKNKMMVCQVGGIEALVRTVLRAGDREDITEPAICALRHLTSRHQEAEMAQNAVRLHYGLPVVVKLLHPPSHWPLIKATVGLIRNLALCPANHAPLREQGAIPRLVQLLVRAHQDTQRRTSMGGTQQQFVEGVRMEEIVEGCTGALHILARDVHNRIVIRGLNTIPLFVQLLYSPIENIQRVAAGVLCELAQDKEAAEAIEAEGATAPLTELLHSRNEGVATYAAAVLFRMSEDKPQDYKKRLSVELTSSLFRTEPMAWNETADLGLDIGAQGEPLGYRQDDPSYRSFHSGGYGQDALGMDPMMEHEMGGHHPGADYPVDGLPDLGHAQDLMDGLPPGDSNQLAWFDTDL

Biological target: β-catenin (endogenous) (human (endogenous in LM3)) (UniProt P35222)
Experiment: co-IP; endogenous proteins in LM3 cells, RIPA lysis buffer, antibody as indicated in the figure, protein A/G agarose beads, overnight at 4 °C

binding: binds
B1: USP8 (endogenous) (enzyme, UniProt P40818 1-1118)
chain: MPAVASVPKELYLSSSLKDLNKKTEVKPEKISTKSYVHSALKIFKTAEECRLDRDEERAYVLYMKYVTVYNLIKKRPDFKQQQDYFHSILGPGNIKKAVEEAERLSESLKLRYEEAEVRKKLEEKDRQEEAQRLQQKRQETGREDGGTLAKGSLENVLDSKDKTQKSNGEKNEKCETKEKGAITAKELYTMMTDKNISLIIMDARRMQDYQDSCILHSLSVPEEAISPGVTASWIEAHLPDDSKDTWKKRGNVEYVVLLDWFSSAKDLQIGTTLRSLKDALFKWESKTVLRNEPLVLEGGYENWLLCYPQYTTNAKVTPPPRRQNEEVSISLDFTYPSLEESIPSKPAAQTPPASIEVDENIELISGQNERMGPLNISTPVEPVAASKSDVSPIIQPVPSIKNVPQIDRTKKPAVKLPEEHRIKSESTNHEQQSPQSGKVIPDRSTKPVVFSPTLMLTDEEKARIHAETALLMEKNKQEKELRERQQEEQKEKLRKEEQEQKAKKKQEAEENEITEKQQKAKEEMEKKESEQAKKEDKETSAKRGKEITGVKRQSKSEHETSDAKKSVEDRGKRCPTPEIQKKSTGDVPHTSVTGDSGSGKPFKIKGQPESGILRTGTFREDTDDTERNKAQREPLTRARSEEMGRIVPGLPSGWAKFLDPITGTFRYYHSPTNTVHMYPPEMAPSSAPPSTPPTHKAKPQIPAERDREPSKLKRSYSSPDITQAIQEEEKRKPTVTPTVNRENKPTCYPKAEISRLSASQIRNLNPVFGGSGPALTGLRNLGNTCYMNSILQCLCNAPHLADYFNRNCYQDDINRSNLLGHKGEVAEEFGIIMKALWTGQYRYISPKDFKITIGKINDQFAGYSQQDSQELLLFLMDGLHEDLNKADNRKRYKEENNDHLDDFKAAEHAWQKHKQLNESIIVALFQGQFKSTVQCLTCHKKSRTFEAFMYLSLPLASTSKCTLQDCLRLFSKEEKLTDNNRFYCSHCRARRDSLKKIEIWKLPPVLLVHLKRFSYDGRWKQKLQTSVDFPLENLDLSQYVIGPKNNLKKYNLFSVSNHYGGLDGGHYTAYCKNAARQRWFKFDDHEVSDISVSSVKSSAAYILFYTSLGPRVTDVAT
